The text below walks through data of paper PMC10046084.

Sequences of proteins named here, by UniProt entry; tags and fusion partners are left off.
UniProt P11798: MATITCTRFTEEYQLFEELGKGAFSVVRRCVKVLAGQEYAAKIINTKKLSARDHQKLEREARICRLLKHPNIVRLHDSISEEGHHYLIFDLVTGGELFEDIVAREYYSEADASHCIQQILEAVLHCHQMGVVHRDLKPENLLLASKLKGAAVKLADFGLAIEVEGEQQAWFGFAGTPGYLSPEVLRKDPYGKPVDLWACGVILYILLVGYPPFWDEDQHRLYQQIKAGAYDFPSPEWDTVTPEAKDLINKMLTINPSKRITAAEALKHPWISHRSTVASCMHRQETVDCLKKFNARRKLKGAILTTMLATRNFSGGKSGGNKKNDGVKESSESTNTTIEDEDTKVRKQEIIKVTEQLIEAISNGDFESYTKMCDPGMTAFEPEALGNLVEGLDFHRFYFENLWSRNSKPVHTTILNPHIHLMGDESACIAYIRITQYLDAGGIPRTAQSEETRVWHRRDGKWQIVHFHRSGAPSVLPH
UniProt Q923T9: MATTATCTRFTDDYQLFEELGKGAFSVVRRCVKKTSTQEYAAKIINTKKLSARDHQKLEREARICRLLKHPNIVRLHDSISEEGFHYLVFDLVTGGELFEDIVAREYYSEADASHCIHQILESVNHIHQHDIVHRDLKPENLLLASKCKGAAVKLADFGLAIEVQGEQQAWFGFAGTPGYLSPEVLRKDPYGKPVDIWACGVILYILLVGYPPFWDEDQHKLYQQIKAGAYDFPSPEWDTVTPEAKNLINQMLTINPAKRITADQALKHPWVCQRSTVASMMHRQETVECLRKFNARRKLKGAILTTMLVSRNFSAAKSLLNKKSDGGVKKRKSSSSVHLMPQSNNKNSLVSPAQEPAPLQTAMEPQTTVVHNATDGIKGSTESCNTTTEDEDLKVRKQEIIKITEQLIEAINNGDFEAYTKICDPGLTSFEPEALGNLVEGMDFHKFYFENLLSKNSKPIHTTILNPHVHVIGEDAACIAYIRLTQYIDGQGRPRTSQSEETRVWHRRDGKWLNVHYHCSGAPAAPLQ
UniProt P60879: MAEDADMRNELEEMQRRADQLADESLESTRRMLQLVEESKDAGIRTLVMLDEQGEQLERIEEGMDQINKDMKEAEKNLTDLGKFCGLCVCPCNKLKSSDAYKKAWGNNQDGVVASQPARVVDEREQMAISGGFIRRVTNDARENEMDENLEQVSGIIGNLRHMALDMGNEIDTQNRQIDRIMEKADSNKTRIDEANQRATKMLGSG

These are yes or no findings as the source states them, for the method shown. Binding seen in cells or lysates may run through a third protein. These calls come from enrichment with a bait or labelling near it, and not all partners need be listed. Where a sequence is shown, tags or fusion partners need not be part of it.

In this experiment the target is T1, GPR158-3×Flag-TeV-HA (G-protein-coupled receptor 158, epitope-tagged knock-in of GPR158^Tag mice) (mouse) (UniProt Q8C419).
T1 sequence: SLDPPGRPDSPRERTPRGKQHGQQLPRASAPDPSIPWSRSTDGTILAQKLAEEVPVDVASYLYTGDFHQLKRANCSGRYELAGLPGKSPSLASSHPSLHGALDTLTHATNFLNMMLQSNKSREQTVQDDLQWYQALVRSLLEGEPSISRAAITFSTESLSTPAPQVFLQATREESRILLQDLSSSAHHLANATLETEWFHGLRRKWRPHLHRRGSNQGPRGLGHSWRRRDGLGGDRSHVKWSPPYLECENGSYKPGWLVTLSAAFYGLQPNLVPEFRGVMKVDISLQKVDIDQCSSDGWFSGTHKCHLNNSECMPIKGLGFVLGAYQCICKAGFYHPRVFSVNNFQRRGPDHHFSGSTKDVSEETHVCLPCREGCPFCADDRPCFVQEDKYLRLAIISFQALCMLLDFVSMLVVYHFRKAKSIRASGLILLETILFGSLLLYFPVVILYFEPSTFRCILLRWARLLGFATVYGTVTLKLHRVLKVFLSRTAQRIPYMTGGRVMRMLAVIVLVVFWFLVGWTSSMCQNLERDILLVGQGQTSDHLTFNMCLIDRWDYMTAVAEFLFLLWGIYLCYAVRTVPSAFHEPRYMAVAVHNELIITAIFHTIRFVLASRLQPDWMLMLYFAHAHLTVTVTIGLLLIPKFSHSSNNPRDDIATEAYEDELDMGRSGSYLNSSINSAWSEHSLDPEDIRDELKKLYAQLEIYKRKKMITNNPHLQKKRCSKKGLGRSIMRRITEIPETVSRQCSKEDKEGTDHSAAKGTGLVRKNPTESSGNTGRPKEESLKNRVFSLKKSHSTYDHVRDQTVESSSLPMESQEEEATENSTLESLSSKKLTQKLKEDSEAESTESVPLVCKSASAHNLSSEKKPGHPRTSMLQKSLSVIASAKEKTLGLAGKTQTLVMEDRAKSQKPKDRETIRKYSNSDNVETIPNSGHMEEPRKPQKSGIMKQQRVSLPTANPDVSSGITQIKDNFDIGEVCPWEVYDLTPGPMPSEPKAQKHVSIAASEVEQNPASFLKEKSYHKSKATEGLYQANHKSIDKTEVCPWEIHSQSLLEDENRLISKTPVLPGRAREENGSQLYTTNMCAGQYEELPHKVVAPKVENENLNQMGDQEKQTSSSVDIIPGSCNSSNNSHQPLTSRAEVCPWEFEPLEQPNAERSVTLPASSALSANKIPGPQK
The experiment can be described thus: affinity purification with mass spectrometry; magnetic beads conjugated with an anti-Flag tag antibody enrich GPR158 from brain tissues of GPR158^Tag mice and wild-type mice; unique peptides of the two compared by mass spectrometry.

Consider “alpha subunit of type II calcium-calmodulin-dependent protein kinase (Camk2a) (from UniProt P11798 1-478)”, for which the binding result is “binds”. To Camk2g (from UniProt Q923T9 1-529) belongs “binds”; to Snap25 (from UniProt P60879 1-206), “binds”.
